{"source": "patent US4937232A", "about": "“Inhibition of protein kinase C by long-chain bases” (priority 1988, dated 1990)", "tested_on": "HL-60 cells", "assay": "Free long-chain base content of HL-60 cells by HPLC", "design": "species or system human", "data": [{"compound": "CCCCCCCCCCCCC/C=C/[C@@H](O)[C@@H](N)CO", "note": "[sphingosine]", "values": [{"measurement": "endogenous level of free long-chain base in HL-60 cells", "value": "12.3±1.2", "unit": "pmoles/10^6 cells"}, {"measurement": "share of the total free long-chain base detected", "value": "> 80", "unit": "%"}]}]}
